Consider 1 molecule from patent publication US20150152088A1, “ALKYNYL HETEROAROMATIC COMPOUND AND USE THEREOF” (Nanjing Sanhome Pharmaceutical Co., Ltd., priority 2012, published 2015).

Usually IC50 stands for the midpoint of a concentration-inhibition curve.

This assay has as its system K562 chronic myelogenous leukemia cells. Kind of assay: MTT assay, in vitro inhibitory activity on cells. The assay is classed as cell-based. As to conditions: Homo sapiens, K562, 48 h, typically 48 hours. The text has this:
In this example, MTT assay was used to detect in vitro inhibitory activity of the compounds prepared according to the above examples on the cells. […] AP24534 was purchased from Shanghai Xinkuo Chemical Technology Co., Ltd., China.
Dimethyl sulfoxide (DMSO) is capable of dissolving formazan in cells, and absorbance value can be measured at a wavelength of 490 nm by an enzyme-linked immunometric meter, which reflects the number of living cells. Within a certain range of the number of cells, the amount of MTT crystals formed is proportional to the number of living cells.
1. […] 2. Culturing in a 37° C., 5% CO2 incubator and keeping the cells adhering to the wall of the well. 3. […] 4. Carefully removing the supernatant, gently washing with PBS and discarding the supernatant again. 5. […] 6. Terminating culturing and carefully discarding the medium in each well. 7. Adding 150 μl dimethyl sulfoxide into each well, shaking for 10 minutes at low speed in a shaker, to make crystals fully dissolved. 8. Measuring the absorbance of each well at 490 nm by an enzyme-linked immunometric meter. 9. Calculating IC50 values.
Background: Tetrazolium dyes change colour on reduction, which living cells bring about.

As for `Cc1ccc(NC(=O)c2ccc(CN3CCN(C)CC3)cc2)cc1Nc1nccc(-c2cccnc2)n1` [Imatinib, reference compound], the midpoint of inhibition, the IC50, lay at 8.42 µM.
